The assay concerns B6C3F1 mice, B16 melanoma ip, median survival T/C. Description: NCI In Vivo Anticancer Drug Screen. Data for tumor model B16 Melanoma (intraperitoneal) in B6C3F1 mice. The note with it: T/C endpoint: median survival time, higher T/C = longer survival. In a few lines: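 Tumor-bearing mice received test compound; a separate group got vehicle only. Survival was then compared, with results reported as treated over control.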

The mark [1] stands for this setting: dose: 400.0 mg/kg/injection, schedule: Q01DX009 (ip), vehicle: saline.
[2] abbreviates: dose: 100.0 mg/kg/injection, schedule: Q01DX009 (ip), vehicle: saline.
Where [3] appears, read: dose: 200.0 mg/kg/injection, schedule: Q01DX009 (ip), vehicle: saline.
[4] abbreviates: dose: 200.0 mg/kg/injection, schedule: Q01DX009 (ip), vehicle: saline with Tween-80.
[5] abbreviates: dose: 400.0 mg/kg/injection, schedule: Q01DX009 (ip), vehicle: saline with Tween-80.
Setting [6] is: dose: 25.0 mg/kg/injection, schedule: Q01DX009 (ip), vehicle: saline with Tween-80.
Where [7] appears, read: dose: 25.0 mg/kg/injection, schedule: Q01DX009 (ip), vehicle: saline.
Where [8] appears, read: dose: 50.0 mg/kg/injection, schedule: Q01DX009 (ip), vehicle: saline.
Setting [9] is: dose: 50.0 mg/kg/injection, schedule: Q01DX009 (ip), vehicle: saline with Tween-80.

The list shows only some results of the screen, not a fair sample: it is rich in T/C values a quarter to a half above the control, in often repeated tests (any T/C) and in doses without a T/C. Further doses and runs are listed elsewhere. T/C: endpoint of the treated group in % of that of the vehicle group. Some doses have a count of surviving animals in place of a T/C: the source holds a T/C of zero for them, seemingly a mark for toxic or unscored doses. Some doses without a T/C left all or most animals alive at the check, yet need not have been tolerated: survival well below the control is almost never listed, so the zero probably covers shortened survival too. Survivors were counted at the toxicity check, usually on the fifth day, unless a day is given; later deaths do not show. Schedules are NCI's codes, taken here to give the interval after Q, in days (D) or hours (H), and the number of doses after X. Some entries were tested several times; the values are given in rising order. Where survival is the endpoint, this PubChem deposit counts one and a half times the control or more as active, and values a quarter to a half above the control carry no call in these data; other NCI protocols may use other cut-offs. Some T/C values carry the count of animals alive at the toxicity check (mostly the fifth day); where none is given, no animal had died by that day.

For `CNC(=O)OCc1c(COC(=O)NC)c(-c2ccc(Cl)c(Cl)c2)n2c1Cc1ccccc1C2`, the T/C (dose: 6.25 mg/kg/injection, schedule: Q01DX009 (ip), vehicle: distilled water + Tween-80) was 136 % of control; the T/C (dose: 12.5 mg/kg/injection, schedule: Q01DX009 (ip), vehicle: distilled water + Tween-80) was 135 % of control; the T/C (dose: 25.0 mg/kg/injection, schedule: Q01DX009 (ip), vehicle: distilled water + Tween-80) was 142 % of control. Besides, the survivor count by setting is: (dose: 200.0 mg/kg/injection, schedule: Q01DX009 (ip), vehicle: distilled water + Tween-80) 9 of 10; (dose: 400.0 mg/kg/injection, schedule: Q01DX009 (ip), vehicle: distilled water + Tween-80) 10 of 10.
Turning to `Cc1cc(O)c2c(c1O)C(=O)C13C(=C2O)C(=O)C2C(O)C1C1C(O)C3C(=O)C3=C(O)c4c(O)cc(C)c(O)c4C(=O)C321` (centres undefined), the T/C (dose: 0.78 mg/kg/injection, schedule: Q01DX009 (ip), vehicle: saline with Tween-80) is 136 % of control and the T/C (dose: 1.56 mg/kg/injection, schedule: Q01DX009 (ip), vehicle: saline with Tween-80) is 148 % of control. Moreover, the survivor count (dose: 3.12 mg/kg/injection, schedule: Q01DX009 (ip), vehicle: saline with Tween-80) was 10 of 10 and 8 of 8.
Consider `NC(CO)(CO)CO`, for which the survivor count is 6 of 10 (dose: 3200.0 mg/kg/injection, schedule: Q01DX009 (ip), vehicle: saline) and 2 of 10 (dose: 3200.0 mg/kg/injection, schedule: Q12HX018 (ip), vehicle: saline).
Turning to `CCCC(=O)O`, the survivor count under setting [1] was 5 of 10.
For `COc1cc([NH-])c([NH-])cc1OC.[Cl][Pt+2][Cl]`, the survivor count runs as follows: (dose: 160.0 mg/kg/injection, schedule: Q01DX009 (ip), vehicle: saline with Tween-80) 7 of 10; (dose: 320.0 mg/kg/injection, schedule: Q01DX009 (ip), vehicle: saline with Tween-80) 0 of 10.
On to `CC[C@]1(O)C[C@H](OC2CC(N(C)C)C(OC3CC(O)C(O)C(C)O3)C(C)O2)c2c(cc3c(c2O)C(=O)c2c(O)ccc(O)c2C3=O)[C@H]1C(=O)OC` (some centres undefined), for which the T/C (dose: 0.5 mg/kg/injection, schedule: Q01DX009 (ip), vehicle: Klucel (hydroxypropylcellulose) (HPC)) is 130 % of control. Further, the survivor count (dose: 4.0 mg/kg/injection, schedule: Q01DX009 (ip), vehicle: Klucel (hydroxypropylcellulose) (HPC)) is on record as 10 of 10.
In the case of `O=C[C@@H](CO)O[C@H](C=O)c1c[nH]c(=O)[nH]c1=O`, the survivor count by setting is: under setting [2], 1 of 10; under setting [3], 0 of 10; under setting [1], 0 of 10.
On to `O=C(Nc1ccccc1C(=O)O)c1cc([N+](=O)[O-])cc([N+](=O)[O-])c1`, for which the survivor count is, setting by setting: under setting [4], 6 of 10; under setting [5], 7 of 10.
For the molecule `COc1cc2cc(c1Cl)N(C)C(=O)CC(OC(=O)C(C)C)C1(C)OC1C(C)C1CC(O)(NC(=O)O1)C(OC)/C=C/C=C(C)C2` (centres undefined), the T/C was 134 % of control (dose: 6.2 micrograms/kg/injection, schedule: Q01DX009 (ip), vehicle: saline + alcohol); 140 % of control (dose: 12.5 micrograms/kg/injection, schedule: Q01DX009 (ip), vehicle: saline + alcohol); 140 % of control (dose: 25.0 micrograms/kg/injection, schedule: Q01DX009 (ip), vehicle: saline + alcohol). The survivor count (dose: 50.0 micrograms/kg/injection, schedule: Q01DX009 (ip), vehicle: saline + alcohol) is reported as 8 of 10; the survivor count (dose: 100.0 micrograms/kg/injection, schedule: Q01DX009 (ip), vehicle: saline + alcohol) is given as 3 of 10; the survivor count (dose: 200.0 micrograms/kg/injection, schedule: Q01DX009 (ip), vehicle: saline + alcohol) is 0 of 10.
`C=Cc1cc(OC)c2c(c1)c(=O)oc1c2cc(OC)c2c(O)ccc(C3OC(C)C(O)C(C)(O)C3O)c21` (centres undefined): the T/C (dose: 20.0 mg/kg/injection, schedule: Q01DX009 (ip), vehicle: DMSO) is 139 % of control.
As for `C1OCN2CSCC12` (centres undefined), the survivor count under setting [5] is listed as 6 of 10.
In the case of `Cn1c(N)c(N=Nc2ccccc2Cl)c(=O)n(C)c1=O`, the T/C under setting [6] is 125 % of control.
In the case of `COc1cc2c(c(OC)c1OC)-c1ccc(OC)c(=O)cc1[C@@H](NC(C)=O)CC2`, the T/C was 129 % of control (dose: 0.06 mg/kg/injection, schedule: Q01DX009 (ip), vehicle: water); 139 % of control (dose: 0.09 mg/kg/injection, schedule: Q01DX009 (ip), vehicle: saline); 140 % of control [9 of 10 alive] (dose: 0.12 mg/kg/injection, schedule: Q01DX009 (ip), vehicle: water); 144 % of control (dose: 0.13 mg/kg/injection, schedule: Q01DX009 (ip), vehicle: saline); 148 % of control (dose: 0.25 mg/kg/injection, schedule: Q01DX009 (ip), vehicle: water); 140 % of control [8 of 10 alive] (dose: 1.0 mg/kg/injection, schedule: Q01DX009 (ip), vehicle: water). The T/C is 129 % of control (dose: 62.0 micrograms/kg/injection, schedule: Q01DX009 (ip), vehicle: water); 141 % of control (dose: 62.5 micrograms/kg/injection, schedule: Q01DX009 (ip), vehicle: water); 145 % of control (dose: 125.0 micrograms/kg/injection, schedule: Q01DX009 (ip), vehicle: water); 139 % of control (dose: 250.0 micrograms/kg/injection, schedule: Q01DX009 (ip), vehicle: water); 149 % of control [7 of 10 alive] (dose: 500.0 micrograms/kg/injection, schedule: Q01DX009 (ip), vehicle: water). For the same molecule, the survivor count runs as follows: (dose: 1.0 mg/kg/injection, schedule: Q01DX009 (ip), vehicle: Klucel (hydroxypropylcellulose) (HPC)) 7 of 10; (dose: 1.5 mg/kg/injection, schedule: Q01DX009 (ip), vehicle: saline) 2 of 10; (dose: 2.0 mg/kg/injection, schedule: Q01DX009 (ip), vehicle: saline) 10 of 10; (dose: 3.0 mg/kg/injection, schedule: Q01DX009 (ip), vehicle: saline) 0 of 10; (dose: 6.0 mg/kg/injection, schedule: Q01DX009 (ip), vehicle: saline) 0 of 10; (dose: 12.0 mg/kg/injection, schedule: Q01DX009 (ip), vehicle: saline) 0 of 10. Besides, the survivor count was 0 of 10 (dose: 12.5 mg/kg/injection, schedule: Q01DX009 (ip), vehicle: saline); 0 of 10 under setting [7]; 0 of 10 under setting [8]; 0 of 10 under setting [2]; 0 of 10 under setting [3]; 0 of 10 under setting [1]. The survivor count (dose: 1000.0 micrograms/kg/injection, schedule: Q01DX009 (ip), vehicle: water) is 0 of 10 and 8 of 10.
Regarding `CN(C)CCc1ccc(O)cc1`, under setting [1], the survivor count is recorded as 5 of 10.
In the case of `N#Cc1ccc(NC(=O)Nc2nncs2)cc1`, the T/C was 125 % of control under setting [9]; 143 % of control (dose: 100.0 mg/kg/injection, schedule: Q01DX009 (ip), vehicle: saline with Tween-80, evaluated on day 45); 127 % of control (dose: 100.0 mg/kg/injection, schedule: Q01DX009 (ip), vehicle: saline with Tween-80, evaluated on day 60). Further, the survivor count is 6 of 10 and 8 of 10 under setting [4]; 0 of 10 and 3 of 10 under setting [5].
Turning to `CN(C)CCNc1ccc([N+](=O)[O-])c2sc3ccccc3c(=O)c12`, the T/C runs as follows: under setting [6], 133 % of control; under setting [9], 140 and 148 % of control.
For `Nc1ncnc2c1ncn2C1OC(CO)C(O)C1O` (centres undefined), the survivor count reads like this: under setting [7], 10 of 10; under setting [8], 8 of 10; under setting [2], 8 of 10.

For the origin of these results see PubChem BioAssay AID200 (DTP/NCI, 2004).
